Results on one substance are retold here after paper PMC9134912.

Sequences of proteins named here, by UniProt entry; tags and fusion partners are left off.
UniProt Q9GZV5: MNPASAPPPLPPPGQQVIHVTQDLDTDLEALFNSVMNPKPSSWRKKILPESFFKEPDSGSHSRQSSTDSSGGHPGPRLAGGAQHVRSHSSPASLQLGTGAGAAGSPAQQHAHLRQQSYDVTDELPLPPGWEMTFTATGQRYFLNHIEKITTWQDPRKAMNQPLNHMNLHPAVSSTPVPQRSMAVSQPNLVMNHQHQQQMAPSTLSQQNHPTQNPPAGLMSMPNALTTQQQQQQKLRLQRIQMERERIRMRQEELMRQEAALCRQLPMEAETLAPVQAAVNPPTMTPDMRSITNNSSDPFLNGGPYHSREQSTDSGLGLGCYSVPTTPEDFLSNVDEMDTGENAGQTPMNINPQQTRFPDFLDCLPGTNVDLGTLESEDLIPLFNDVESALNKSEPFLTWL

These are yes or no findings as the source states them, for the method shown. Binding seen in cells or lysates may run through a third protein. Some entries that bind do so weakly or less than the wild type.

The experiment addresses T1, Ubiquitin-specific protease 1 (USP1) (human (endogenous in 143B and HOS)) (UniProt O94782).
T1 sequence: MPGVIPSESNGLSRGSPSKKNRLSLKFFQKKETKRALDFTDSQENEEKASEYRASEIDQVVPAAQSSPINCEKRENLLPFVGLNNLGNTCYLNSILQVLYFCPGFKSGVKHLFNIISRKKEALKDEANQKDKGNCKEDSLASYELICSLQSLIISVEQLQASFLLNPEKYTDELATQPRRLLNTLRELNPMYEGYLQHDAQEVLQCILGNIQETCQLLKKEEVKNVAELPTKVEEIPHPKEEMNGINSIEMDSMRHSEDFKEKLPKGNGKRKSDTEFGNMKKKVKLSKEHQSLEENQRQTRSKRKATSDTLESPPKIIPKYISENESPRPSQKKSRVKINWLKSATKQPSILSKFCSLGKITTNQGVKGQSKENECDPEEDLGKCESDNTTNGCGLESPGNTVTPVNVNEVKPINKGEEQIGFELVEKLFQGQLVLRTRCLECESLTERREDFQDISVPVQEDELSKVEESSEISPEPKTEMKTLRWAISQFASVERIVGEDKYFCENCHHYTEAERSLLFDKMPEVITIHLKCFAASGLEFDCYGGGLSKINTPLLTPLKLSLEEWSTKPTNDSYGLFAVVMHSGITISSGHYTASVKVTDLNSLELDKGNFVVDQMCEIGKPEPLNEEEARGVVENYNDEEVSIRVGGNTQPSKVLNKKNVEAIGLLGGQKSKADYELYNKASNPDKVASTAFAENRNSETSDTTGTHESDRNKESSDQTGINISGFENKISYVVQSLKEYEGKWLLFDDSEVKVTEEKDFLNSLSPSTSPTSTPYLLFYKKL
The experiment is described as follows: co-IP; endogenous proteins in RIPA lysates of 143B and HOS cells; precipitated with anti-USP1 antibody (and the reverse Co-IP), protein A/G-agarose, 4 °C; IgG as control; Western blot. Background: A western blot detects proteins with antibodies after separation by electrophoresis.

As for “Transcriptional Co-Activator With PDZ-Binding Motif (TAZ) (from UniProt Q9GZV5 1-400)”, the binding result is reported as “binds”.
